At least one compound was matched to its structure with a doubt left.
System: Klotho
Assay: Klotho expression in keratinocytes treated with retinoic acid and retinol, quantitative real-time PCR
Assay type: cell-based, human
Description: In order to examine whether Klotho protein is expressed in skin cells, primers of SEQ ID NOS: 1 and 2, which can amplify Klotho gene (NCBI accession No. NM-004795), were constructed. Then, RT-PCR was performed using the primer set and a probe of SEQ ID NO: 3 (TaqMan™ fluorogenic probe) in order to detect Klotho mRNA in the cDNA of keratinocytes (NHK), fibroblasts (NHF), NHM-promoblack (Normal Human Epidermal Melanocytes (NHEM) juvenile foreskin, Promocell: melanocytes derived from dark-skinned persons), NHM-DP (NHM-dark pigment, Invitrogen: melanocytes derived from dark-skinned persons) and NHM-MP (NHM-moderate pigment, Invitrogen: melanocytes derived from Asian). The PCR reaction was performed for 35 cycles, each consisting of denaturation at 94° C. for 30 sec, annealing at 55° C. for 30 sec, and extension at 72° C. for 60 sec. As a positive control, the cDNA of human embryonic kidney cells (HEK293) known to express Klotho gene was used.
In order to examine the effects of retinoic acid and retinol (known as anti-aging substances) on the expression of Klotho in keratinocytes, quantitative real time PCR was performed under the same conditions as described in Test Example 1, and the expression levels of Klotho protein were examined at 2 days and 8 days after treatment of the cells with each of 0.1 μM and 1 μM of retinoic acid and 1 μM and 10 μM of retinol.

**Q.** For `CC1=C(/C=C/C(C)=C/C=C/C(C)=C/C(=O)O)C(C)(C)CCC1` [retinoic acid], which “expression level of Klotho protein” value (keratinocytes, 8 days after treatment, 0.1 μM and 1 μM retinoic acid, 1 μM and 10 μM retinol, FIG. 3) is on record?
**A.** The value was “significantly increased”.

**Q.** And the “expression of Klotho protein” value (summary statement, found using the kit)?
**A.** Its value is “increased”.
